No constants are given. Whether binding was seen depends on the method and setting. Some results given as binding are weak or reduced against the parent protein; the word gives no strength.
How the values were obtained:
[1] = target: Xenopus cdc2 (34 kD) (Xenopus laevis) (UniProt P24033); assay: p13-Sepharose precipitation of Xenopus oocyte extracts, Western blot
[2] = target: T1, Xenopus cdc2/cyclin B complex (Xenopus laevis) (UniProt P24033+P13351); assay: depletion of Xenopus extracts on p13-Sepharose
[3] = target: T1, Xenopus cdc2/cyclin B complex (Xenopus laevis); assay: p13-Sepharose precipitates of Xenopus extracts probed with anti-cyclin B2 antibody

Amino acid sequences for entries named in this document (tags omitted). A change or cut given only in a name is not applied to a line headed by its entry.
UniProt P24033: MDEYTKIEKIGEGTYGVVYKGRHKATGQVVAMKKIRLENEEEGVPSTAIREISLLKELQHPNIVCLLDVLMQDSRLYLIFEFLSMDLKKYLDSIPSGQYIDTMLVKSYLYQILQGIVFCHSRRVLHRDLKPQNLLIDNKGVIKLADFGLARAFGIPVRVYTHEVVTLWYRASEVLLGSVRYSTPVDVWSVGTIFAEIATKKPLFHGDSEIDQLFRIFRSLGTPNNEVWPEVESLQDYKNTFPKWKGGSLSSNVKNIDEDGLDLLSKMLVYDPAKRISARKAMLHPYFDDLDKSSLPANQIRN
UniProt P13351: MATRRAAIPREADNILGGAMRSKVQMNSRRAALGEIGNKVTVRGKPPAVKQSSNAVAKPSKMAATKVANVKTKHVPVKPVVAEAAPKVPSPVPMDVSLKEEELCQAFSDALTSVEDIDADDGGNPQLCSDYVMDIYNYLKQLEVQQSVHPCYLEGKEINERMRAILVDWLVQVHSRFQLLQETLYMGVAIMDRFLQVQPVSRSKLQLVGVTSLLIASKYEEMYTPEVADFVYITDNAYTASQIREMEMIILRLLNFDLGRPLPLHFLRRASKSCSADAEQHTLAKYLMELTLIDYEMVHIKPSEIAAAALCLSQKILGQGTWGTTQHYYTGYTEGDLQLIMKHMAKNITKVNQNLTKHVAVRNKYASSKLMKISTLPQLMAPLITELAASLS

Measured: binding

B1: p13 protein encoded by the suc1 gene (protein, fission yeast, UniProt P08463 1-113, looked up)
chain: MSKSGVPRLLTASERERLEPFIDQIHYSPRYADDEYEYRHVMLPKAMLKAIPTDYFNPETGTLRILQEEEWRGLGITQSLGWEMYEVHVPEPHILLFKREKDYQMKFSQQRGG
binds: all assays above
